In patent US20180185504A1:
Changes are numbered by the printed parent chain. No constants are given. Whether binding was seen depends on the method and setting. Some results given as binding are weak or reduced against the parent protein; the word gives no strength.

B1: H1H6762P (antibody, human IgG1, V domains shown)
VH: QVQLVESGGGVVQPGRSLRLSCAASGFTFSHYGMVWVRQPPGKGLEWVALISFDGTTKYYADSVKGRFTISRDNSKNTLYLQMNSLRAEDTAVYFCVGAIAAAAFDLWGRGTLVTVSS
VL: EIVMTQSPATLSVSPGERATLSCRASQSVSSDLAWYQQKPGQAPRLLIYSASARATGIPARFTGSGSGTDFTLTISSLQSEDFAVYYCQQYNNWPMYTFGQGTKLEIK
B2: H1H6765P (antibody, human IgG1, V domains shown)
VH: EVQLVESGGGVVRPGGSLRLSCVGSGFSFDDHGMNWVRQGPGKGLEWVSGFNWNGGSTNYAESVKGRFTISRDNARNSLFLQMNSLRAEDTALYYCVRGRSGWFNDAFDVWGPGTMVTVSS
VL: EIVLTQSPGTLSLSPGERATLSCRASQTINSNYLAWYRQKPGQTPRLLIYGTSSRATGIPDRFSGSGSGTDFSLTISRLEPEDFAVFYCQQYAGLPTFGPGTKVDIK
B3: H1H6781P (antibody, human IgG1, V domains shown)
VH: EVQLVESGGDLVQPGESLRLSCTASGFTFNSYEMNWVRQAPGKGLEWVSYISSSGGTKYYVDSVKGRFTISRDNAKKSLYLQMNSLRADDTALYYCARLNGVDVFDIWGQGTMVTVSS
VL: DIQMTQSPSSLSASVGDRVTITCRASQDIFNYLAWFQQKPGKVPELLISAASTLQSGVPSRFSGSGSGTYFTLTISSLQPEDIATYYCQRYNSAPLTFGGGTKVEIK
B4: H1H6785P (antibody, human IgG1, V domains shown)
VH: EVQLVESGGGLVQPGGSLRLSCAASGFTFSSYEMNWVRQAPGKGLEWISYISSRGGTIYYADSIKGRFTIYRDNARNSLYLQMNSLRAEDTAIYYCARLSGVDIFDIWGQGTMVTVSS
VL: B3 VL with D28G, F30S, F36Y, E45K, S49Y, A50F, S65G, Y70D, I83V
B5: H1H6790P (antibody, human IgG1, V domains shown)
VH: EVQLVESGGGLVQPGGSLRLSCAASGFTFSSYAMTWVRQAPGKGLEWVSAITGSVGNTYYADSVKGRFTISRDNSKNTLYLQMNSLGAEDTAEYYCAKGAGMTTNWYLDLWGRGTLVTVSS
VL: DIVMTQSPDSLAVSLGARATINCKSSQSVLYSSNNQNYLTWYQQKPGQPPKLLIKWASTRESGVPDRFSGSGSGTDFTLTISSLQAEDVAVYYCQQYASSPYTFGQGTKLEIK
B6: H1H6792P (antibody, human IgG1, V domains shown)
VH: EVQLVESGGGLVQPGRSLRLSCAASGFTLDDHAVHWVRQAPGKGLEWVSGISWNSVYIDYADSVKGRFTIFRDNAKNSLYLQMNSLRAEDTAFYYCARDIEGARDYWGQGTLVTVSS
VL: DIQMTQSPSSLSASVGDRVTITCRASQGIRNDLGWYQQKPGKAPKRLIYAASSLQSGVPSRFSGSGYGTEFTLTISSLQPEDFAPYYCLQHNSYPLTFGGGTKVEIK
B7: H1H6800P (antibody, human IgG1, V domains shown)
VH: EVQLVESGGGLVQPGRSLRLSCAASGFTFDGYAMHWVRQGPGKGLEWVSGISWYSDTLGYADSVKGRFTISRDNAKNSLYLQMNSLRTEDTAFYYCAKISSSGWAFDYWGQGTLVTVSS
VL: EIVLTQSPGTLSLSPGERATLSCRASHSVSSAYLAWYQQKPGQTPRLLIYGTSSRATGIPDRFSGSGSGTDFTLTISRLEPEDFAVYYCQQYGSSPLFTFGPGTKVDIK
B8: H1H6803P (antibody, human IgG1, V domains shown)
VH: EVQLVESGGGVVRPGGSLRLSCAASGFKFDDYGMTWVRHVPGKGLEWVSGINWNGGRTGYTDSVKGRFTISRDNAKNSLYLQMNSLRAEDTALYHCAGARRDAFDIWGQGTMVTVSS
VL: DIQMTQSPSSLSASIGDRVTITCRASQNIIKYLNWYQQNAGKAPKLLIYTASSLQSGVPSRFSGSGSGTDFTLTISSLQPEDFATYYCQQSSSSPYTFGQGTKLEIK
B9: H1H6953N (antibody, human IgG1, V domains shown)
VH: EVQLLESGGGLVQPGGTLRLSCAASGFTFSAYAMSWVRQAPGKGLEWVSSINVRAGDTYYADSVKGRFTISRDNSKNTLFLLMNSLRAEDTAAYYCAKARYSSNWGFDFWGQGTLVTVSS
VL: DIVMTQSPDSLTVSLGARTTINCQSSQTILHSSNNHNYLAWYQQKPGLPPKLLIYWSSTRESGVPDRFSGSGSGTDFTLTISSLQAEDVAIYYCQQYSNTPYTFGQGTKLEIN
B10: H1H6958N2 (antibody, human IgG1, V domains shown)
VH: QVQLVESGGGVVQPGRSLRLSCGASGFTFRNYGMQWVRQGPGKGLEWVTLISFDGNDKYYADSVKGRFTISRDNSKNTLFLQMNSLRTEDTAVYYCARGGDFDYWGQGTLVTVSS
VL: DIQMTQSPSSLSASVGDRVTITCRASQDIRKDLGWYQQKPGKAPKRLIYAASSLHSGVPSRFSGSGSGTEFTLTISSLQPEDFATYYCLQHNSYPMYTFGQGTKLEIK
B11: H1H6960N (antibody, human IgG1, V domains shown)
VH: EVQLVESGGGLVKPGGSLRLSCAASGITFSSYSMNWVRQAPGKGLEWVSSISTRSSLIHYADSVKGRFTISRDNAKNSLYLQMNSLRDEDTAVYYCARWDAAAAFDYWGQGTLVIVSS
VL: DIQLTQSPSFLSASVGDRVTITCWASQGISSYLAWYQQKPGKAPKLLIYVASTLQSGVPSRFSGSGSGTEFTLTISSLQPEDFATYFCQQLNSYPLTFGGGTKVEIK
B12: H1H6966N (antibody, human IgG1, V domains shown)
VH: QVQLVQSGAEVQKPGASVKVSCKVSGYTLTALSIHWVRQAPGKGLEWMGNFDPGDGETIHAQKFQGRVTMTGDTSTDTAYMELSSLRSEDTAVYYCVGVTFDYWGQGTLVTVSS
VL: EIVMTQSPATLSVSPGERATLSCRASQSVASNLAWYQQKPGQAPRLLLYGASTRATGIPARFSGSGSGTEFTLTISSLQSEDFALYYCQHYNNWPLTFGGGTKVEIK
B13: H1H6967N (antibody, human IgG1, V domains shown)
VH: EVQLVESGGDLVHPGRSLRLSCAASGFPFDEYAMHWVRQVPGKGLEWVSGISWSNNNIGYADSVKGRFTISRDNAKNSLYLQMNSLRPEDTAFYYCAKSGIFDSWGQGTLVTVSS
VL: B12 VL with A30S, S31R, N32D, L48I, Y49H, T69A, T74I, L85V, H90Q
B14: H1H6975N (antibody, human IgG1, V domains shown)
VH: EVHLVESGGGLVQPGGSLRLSCAASGFTFSSYEMNWVRQTPGKGLEWISHISSRSVIIYYADSVKGRFTISRDNAKNSLFLQMNSLRAEDTAVYFCAGITIFGIPEYWGQGTLVTVSS
VL: EIVLTQSPATLSLSPGERATLSCRASQSVSSYFAWYQQKPGQAPRLLIYDASSRATGIPTRFSGSGSGTDFTLTISSLEPEDFAVYYCQQRSSWPITFGQGTRLEIK

Molecular target: monkey macaca fascicularis PRLR construct with an HA tag on HEK293/mfPRLR cells (macaca fascicularis)
Experiment: FACS on HEK293/mfPRLR; * = specific binding (table footnote)

Binder	binding
B1	binds
B2	binds
B3	binds
B4	binds
B5	binds
B6	binds
B7	binds
B8	binds
B9	binds
B10	binds
B11	binds
B12	binds
B13	binds
B14	binds
